Data published in paper PMC11994786.
Results are given in words; binding and its absence hold for the method and conditions named. In cells and extracts the contact can be indirect. Binding calls can cover weak binding; strength is not graded here.

The chains behind the UniProt entries cited, without tags or fusion partners. Where a name states a change or a piece, a line headed by the entry shows the natural chain unless it says otherwise.
UniProt P69566: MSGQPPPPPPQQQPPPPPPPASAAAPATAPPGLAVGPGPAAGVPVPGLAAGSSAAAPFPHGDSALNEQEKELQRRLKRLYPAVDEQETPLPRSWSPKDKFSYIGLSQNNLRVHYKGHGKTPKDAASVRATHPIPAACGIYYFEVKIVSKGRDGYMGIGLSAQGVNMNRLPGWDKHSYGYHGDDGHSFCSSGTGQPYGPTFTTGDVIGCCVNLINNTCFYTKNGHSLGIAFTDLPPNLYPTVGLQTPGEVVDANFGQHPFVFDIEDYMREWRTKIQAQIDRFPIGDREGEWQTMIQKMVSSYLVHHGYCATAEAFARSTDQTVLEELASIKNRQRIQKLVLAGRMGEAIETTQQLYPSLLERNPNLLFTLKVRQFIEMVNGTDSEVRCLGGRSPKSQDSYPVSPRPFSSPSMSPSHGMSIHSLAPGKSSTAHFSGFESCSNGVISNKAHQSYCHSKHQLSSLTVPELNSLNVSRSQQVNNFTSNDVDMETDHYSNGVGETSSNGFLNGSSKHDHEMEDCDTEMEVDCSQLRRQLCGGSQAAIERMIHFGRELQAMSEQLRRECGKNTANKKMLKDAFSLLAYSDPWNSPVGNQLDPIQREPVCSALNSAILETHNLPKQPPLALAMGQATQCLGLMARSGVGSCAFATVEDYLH
UniProt Q9JIY5: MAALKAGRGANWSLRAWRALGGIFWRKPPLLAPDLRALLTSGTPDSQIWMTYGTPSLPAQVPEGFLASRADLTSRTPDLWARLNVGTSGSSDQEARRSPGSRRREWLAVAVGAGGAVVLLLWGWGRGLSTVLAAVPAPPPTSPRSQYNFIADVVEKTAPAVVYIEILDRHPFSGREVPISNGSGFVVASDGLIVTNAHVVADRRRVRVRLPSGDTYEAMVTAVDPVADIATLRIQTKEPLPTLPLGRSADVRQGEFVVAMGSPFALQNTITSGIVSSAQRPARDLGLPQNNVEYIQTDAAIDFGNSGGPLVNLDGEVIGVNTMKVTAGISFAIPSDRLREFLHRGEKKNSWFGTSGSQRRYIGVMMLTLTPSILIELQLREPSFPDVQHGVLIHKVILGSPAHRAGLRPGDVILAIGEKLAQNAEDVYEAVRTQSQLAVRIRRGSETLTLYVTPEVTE

Biological target: RanBP9-TT (endogenous RanBP9 with a double tag made of HA and V5) (mouse) (UniProt P69566)
Test: co-IP; anti-V5 magnetic beads on lysates of RanBP9-TT MEFs grown with 10% serum or deprived of serum for 4 h; IgG beads as control; Western blot

With “High temperature requirement protein 2 (HtrA2) (from UniProt Q9JIY5)” the binding was “binds”.
